Source: PubChem BioAssay AID1508615 (Milbrandt Lab, Department of Genetics, Washington …, 2020)
The whole screen tested about 1,600 compounds, of which about 20 (1%) were called active.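 Rule for the calls: active = ratio of uncleaved NAD to its breakdown product ADP-ribose above 4, meaning the enzyme was inhibited; inactive = the rest.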 This is one part of the list.

The chains behind the UniProt entries cited, without tags or fusion partners. Where a name states a change or a piece, a line headed by the entry shows the natural chain unless it says otherwise.
UniProt Q6SZW1: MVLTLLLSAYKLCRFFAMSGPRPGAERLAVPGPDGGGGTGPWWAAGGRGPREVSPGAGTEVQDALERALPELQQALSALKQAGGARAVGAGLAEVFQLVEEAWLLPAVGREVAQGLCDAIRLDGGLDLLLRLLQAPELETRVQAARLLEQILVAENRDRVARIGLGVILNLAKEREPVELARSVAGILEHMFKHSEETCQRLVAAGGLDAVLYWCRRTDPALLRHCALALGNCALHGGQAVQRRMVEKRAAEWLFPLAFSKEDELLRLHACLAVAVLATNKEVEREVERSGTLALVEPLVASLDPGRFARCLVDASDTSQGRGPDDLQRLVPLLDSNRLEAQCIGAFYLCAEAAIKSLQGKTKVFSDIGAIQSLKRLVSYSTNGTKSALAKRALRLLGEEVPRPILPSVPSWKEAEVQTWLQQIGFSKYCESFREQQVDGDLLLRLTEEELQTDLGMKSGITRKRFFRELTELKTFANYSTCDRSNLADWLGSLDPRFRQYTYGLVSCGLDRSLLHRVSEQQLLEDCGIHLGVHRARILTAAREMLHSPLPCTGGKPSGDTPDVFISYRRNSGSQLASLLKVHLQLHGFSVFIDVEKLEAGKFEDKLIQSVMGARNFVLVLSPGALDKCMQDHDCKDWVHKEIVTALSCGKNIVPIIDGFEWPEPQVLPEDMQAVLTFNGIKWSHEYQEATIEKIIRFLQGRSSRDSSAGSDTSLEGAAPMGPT

Each molecule was assayed against NAD(+) hydrolase SARM1 (Homo sapiens) (UniProt Q6SZW1) (assay: inhibition of SAM-TIR NAD hydrolysis to ADPR – cell lysate, HPLC readout, primary screen (AID 1508615;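 note: substrate NAD at 5 µM with 60 min at 37 °C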)). Settings: HEK293T SAM-TIR lysate, NAD/ADPR ratio by HPLC; at 5 µM; stronger effect = higher value.

NAD/ADPR ratio, inactive:
Cc1c(-c2ccccc2)n(O)[n+]([O-])c1-c1ccccc1 3
CSc1cccc(NC(=O)Nc2ccccc2C(N)=O)c1 3
Clc1nc2nc3n(c2nc1Cl)CCC3 3
CCNc1nn2ccccc2c1/C=C(\C#N)C(=O)OCC 3
COc1ccc(C2CN=NC2C(=O)c2ccccc2)cc1 (stereo unspecified) 3
CN(C)CC1C2CCC(C2)C1O (stereo unspecified) 3
CN1CCN(C(=O)/C=C/c2ccc([N+](=O)[O-])o2)CC1 3
COC(=O)C1(C)Cc2cc(OC(C)=O)c(OC(C)=O)cc2N1 (stereo unspecified) 3
N#C/C(=C\c1cccnc1)c1ccc(Br)cc1 3
COc1cc2c(cc1OC)[N+]([O-])=C(c1ccccc1)C2=O 3
Cn1cnc([N+](=O)[O-])c1Sc1nnc(-c2cccnc2)n1C 3
COc1ccccc1N=NNc1ccccc1OC 3
CC1=C(C#N)C(C)(C)C(C#N)=C(C)N1 3
COC(=O)Cc1[nH]c(Cl)nc1C(N)=O 3
NC(=O)c1ccc2c(c1)S(=O)(=O)c1ccccc1C2=O 3
Cn1ncc2c(=O)[nH]c(N)nc21 3
CCOC(=O)c1cc2c(OC)c(OC)ccc2c2[nH]cc(C#N)c(=O)c12 3
O=C(O)/C=C/C(=O)N1Cc2cc3ccccc3nc2C1 3
Nc1ncnc2c(C3OC(CO)C(O)C3O)c[nH]c12 (stereo unspecified) 3
Cn1c(=O)c2[nH]c(CNc3ccc(C(=O)O)cc3)nc2n(C)c1=O 3
O=C(O)c1ccc(O)c(O)c1 3
COc1ccc(C(=O)Oc2ccc[nH]c2=O)cc1 3
CCN(CC)CCNC(=O)C(Cl)=C1C(Cl)=C(Cl)C(Cl)=C1Cl 3
CCCCCCCCCCCCC(NC(C)=O)(C(=O)OCC)C(=O)OCC 3
COc1c(O)ccc2c1CN1CCc3cc4c(cc3C1C2)OCO4 (stereo unspecified) 3
Nc1ccc(/C=C/c2ccc3ncccc3c2)cc1 3
Cc1cnc(SCc2ccc(Cl)cc2Cl)[nH]c1=O 3
CC(=O)C1C=CC(C)(C(=O)O)C2C=C(C)C(=O)C(C)(O)C12 (stereo unspecified) 3
ClC1=C(Cl)C(Cl)=C(Cl)C1=C/C=C/c1ccccc1 3
Nc1cc([N+](=O)[O-])ccc1Nc1ccc(O)cc1 3
COc1ccc2nc3cc(Cl)ccc3c(Nc3cc(C(C)C)c(O)cc3C)c2c1 3
Cc1[nH]ccc2c1[nH]c1cc(=O)ccc12 3
Cn1c(CO)cnc1-c1ccccc1 3
CC1(C)C2CCC(CN=C(N)CSS(=O)(=O)O)C1C2 (stereo unspecified) 3
O=C(O)c1nc2nc(Cl)c(Cl)nc2[nH]1 3
COC(=O)C1(C(=O)OC)C2C(=O)C3C(C21)C3(C(=O)OC(C)(C)C)C(=O)OC(C)(C)C (stereo unspecified) 3
NS(=O)(=O)c1ccc(Nc2ccccc2)c([N+](=O)[O-])c1 3
S=c1[nH]c2ccccc2n2cccc12 3
CCOC(=O)Cn1nc2oc(=O)c(CCN3CCN(c4ccccc4OC)CC3)c(C)c2c1C 3
NNC(=O)CNC(=O)Nc1n[nH]c(=S)s1 3
NC(=O)C1=C(N)c2ccccc2C1c1ccccc1 (stereo unspecified) 3
Nc1nc(SCc2ccccn2)c2ncn(C3OC(CO)C(O)C3O)c2n1 (stereo unspecified) 3
O=C1CSC(=S)N1/N=C/c1c[nH]c2ccc(Br)cc12 3
CCCCCOc1ccc(N2C(=O)C(C)CNC2=S)cc1 (stereo unspecified) 3
C=CCSC(CC)(CC)C(N)=O 3
CCOC(=O)N1CCc2cc(OC)c(OC)c3c2c1cc1cc(OC)c(OC)cc13 3
O=C(Nc1ccc(C2=NCCN2)cc1)c1ccc(C(=O)Nc2ccc(C3=NCCN3)cc2)c(Cl)c1 3
CCCCOC(=O)c1cccnc1 3
O=C(Nc1cccc(-c2nc3ccccc3[nH]2)c1)c1ccc(C(=O)Nc2cccc(-c3nc4ccccc4[nH]3)c2)cc1 3
CCN(CC)CCN1c2ccccc2Sc2ccc3ccccc3c21 3
Cc1cccc(N2CCN(CC(O)COc3ccc(Cl)cc3)CC2)c1 (stereo unspecified) 3
c1ccc(-c2nnc3nc(N4CCCCC4)nc(N4CCCCC4)n23)cc1 3
CCOC(=O)Cc1cc(=O)c2cc(C)ccc2[nH]1 3
CCc1noc2cc(-c3ccccc3)n(C)c(=O)c12 3
O=C(/C=C/c1ccc(Cl)s1)c1ccc(Cl)s1 3
Nc1nc(N)c(C=Nc2ccc(Br)cc2)c(Nc2ccc(Br)cc2)n1 3
COC(=O)C1(F)C(=O)NC(=O)NC1OC (stereo unspecified) 3
CCCNC(=O)c1ccccc1C(=O)NC1(C(=O)NCCC)CCCC1 3
Cc1ccc(N=Nc2c(N)nn(-c3ccccc3)c2N)cc1 3
O=C1C=CC(=O)N1c1ccc(I)cc1Cl 3
Cc1cccc(C(O)C(O)c2cccc(C)n2)n1 (stereo unspecified) 3
c1ccc2c(c1)cnc1ccccc12 3
CC[C@@]1(O)C(=O)OCc2c1cc1n(c2=O)Cc2cc3c(N)cccc3nc2-1 3
Nc1nc(N)c(N=Nc2ccc(C(=O)O)cc2)c(N)n1 3
NC1=NC(c2ccccc2)N=C(Nc2ccccc2)N1 (stereo unspecified) 3
CCOc1ccc(S(=O)(=O)c2ccc(C)cc2)c2c1no[n+]2[O-] 3
O=C(O)c1ccccc1-c1ccccc1C(=O)Nc1ccc2oc(=O)c3ccccc3c2c1 3
O=C(Nc1cccc(Cl)c1)c1cc(N=Nc2ccc([N+](=O)[O-])cc2Cl)ccc1O 3
COC1CC(C)C(OC)c2cc(O)cc(c2O)NC(=O)/C(C)=C/C=C\C(C)C(OC(N)=O)/C(C)=C\C(C)C1OC (stereo unspecified) 3
CC1CN(CCN2CC(C)N(C=O)CC2C)C(C)CN1C=O (stereo unspecified) 3
O=c1nc(Nc2cccc(Cl)c2)oc2cc(Cl)oc(=O)c12 3

Not a retest: entries from further up.
NAD/ADPR ratio, inactive:
NNC(=O)CNC(=O)Nc1n[nH]c(=S)s1 3
NC(=O)C1=C(N)c2ccccc2C1c1ccccc1 (stereo unspecified) 3
Nc1nc(SCc2ccccn2)c2ncn(C3OC(CO)C(O)C3O)c2n1 (stereo unspecified) 3
O=C1CSC(=S)N1/N=C/c1c[nH]c2ccc(Br)cc12 3
